According to article PMC10681173:
Results are given in words; binding and its absence hold for the method and conditions named. Binding seen in cells or lysates may run through a third protein. Some results given as binding are weak or reduced against the parent protein; the word gives no strength. Where a sequence is shown, tags or fusion partners need not be part of it.

How the values were obtained:
[1] = target: CsoS1A from H. neapolitanus with GFP10 or GFP11 at the N-terminus (H. neapolitanus) (UniProt P45689); experiment: split reporter; tripartite GFP in E. coli BL21(DE3) cells; single vector, POI-10 and POI-11 on a bicistronic mRNA under T7p, GFP1-9 independent; IPTG 10 uM from the start, 37°C; Fmax relative to the RMM reference
[2] = target: EutM from E. coli fused to GFP10 or GFP11 (EutM-10/11) (E. coli) (UniProt P0ABF4); experiment: as above
[3] = target: CcmL BMC-P from Synechocystis sp. PCC 6803 fused to GFP10 or GFP11 (Synechocystis sp. PCC 6803) (UniProt P72759); experiment: as above
[4] = target: T1, CcmK2 from Synechocystis sp. PCC 6803, GFP10/11-tagged (Synechocystis sp. PCC 6803) (UniProt P72761); experiment: as above
T1 sequence: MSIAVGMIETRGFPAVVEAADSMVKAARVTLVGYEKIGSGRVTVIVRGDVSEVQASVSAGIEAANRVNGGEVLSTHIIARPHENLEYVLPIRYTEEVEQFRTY

[5] = target: CcmK3 from Synechocystis sp. PCC 6803 fused to GFP10 or GFP11 (CcmK3-10/11) (Synechocystis sp. PCC 6803) (UniProt P73406); experiment: split reporter; tripartite GFP in E. coli BL21(DE3) cells; single vector, all three partners on a single tricistronic mRNA; IPTG 10 uM from the start, 37°C
[6] = target: CcmK3 from Synechocystis sp. PCC 6803 fused to GFP10 or GFP11 (CcmK3-10/11) (Synechocystis sp. PCC 6803) (UniProt P73406); experiment: split reporter; tripartite GFP in E. coli BL21(DE3) cells; single vector, POI-10 and POI-11 on a bicistronic mRNA under T7p, GFP1-9 independent; IPTG 10 uM from the start, 37°C; Fmax relative to the RMM reference
[7] = target: CcmK3 from Synechocystis sp. PCC 6803 fused to GFP10 or GFP11 (CcmK3-10/11) (Synechocystis sp. PCC 6803) (UniProt P73406); experiment: split reporter; tripartite GFP in E. coli BL21(DE3) cells; bicistronic POI-10/11 under constitutive promoters (J23103, J23105, J23106, J23109, J23110, J23115), GFP1-9 under T7p; IPTG at 0, 4, 6 or 8 hours of culture
[8] = target: CcmK3 from Synechocystis sp. PCC 6803 fused to GFP10 or GFP11 (CcmK3-10/11) (Synechocystis sp. PCC 6803) (UniProt P73406); experiment: split reporter; tripartite GFP in E. coli BL21(DE3) cells; single pET26b vector coding POI-GFP10, POI-GFP11 and GFP1-9 (three independent transcripts, T7p); IPTG 10 uM from the start, 37°C, about 16 h; Fmax from sigmoidal fits, relative to the RMM reference

B1: CsoS1A from H. neapolitanus with GFP10 or GFP11 at the N-terminus (protein, UniProt P45689 1-98)
chain: MADVTGIALGMIETRGLVPAIEAADAMTKAAEVRLVGRQFVGGGYVTVLVRGETGAVNAAVRAGADACERVGDGLVAAHIIARVHSEVENILPKAPQA
For B1, the binding [1] was “binds”.

B2: EutM from E. coli fused to GFP10 or GFP11 (EutM-10/11) (protein, UniProt P0ABF4 1-97)
chain: MEALGMIETRGLVALIEASDAMVKAARVKLVGVKQIGGGLCTAMVRGDVAACKAATDAGAAAAQRIGELVSVHVIPRPHGDLEEVFPIGLKGDSSNL
For B2, the binding [2] was “binds”.

B3: CcmL BMC-P from Synechocystis sp. PCC 6803 fused to GFP10 or GFP11 (protein, UniProt P72759 1-100)
chain: MQLAKVLGTVVSTSKTPNLTGVKLLLVQFLDTKGQPLERYEVAGDVVGAGLNEWVLVARGSAARKERGNGDRPLDAMVVGIIDTVNVASGSLYNKRDDGR
With B3 the binding [3] was “binds”.

B4: CcmK1 from Synechocystis sp. PCC 6803, GFP10/11-tagged (protein, UniProt P72760 1-111)
chain: MSIAVGMIETLGFPAVVEAADSMVKAARVTLVGYEKIGSGRVTVIVRGDVSEVQASVTAGIENIRRVNGGEVLSNHIIARPHENLEYVLPIRYTEAVEQFREIVNPSIIRR
For B4, the binding [4] was “binds”.

B5: CcmK3 from Synechocystis sp. PCC 6803 fused to GFP10 or GFP11 (CcmK3-10/11) (protein, UniProt P73406 1-103)
chain: MPQAVGVIQTLGFPSVLAAADAMLKGGRVTLVYYDLAERGNFVVAIRGPVSEVNLSMKMGLAAVNESVMGGEIVSHYIVPNPPENVLAVLPVEYTEKVARFRT
With B5 the binding [5] was “no binding”, the binding [6] was “no binding” and the binding [7] was “no binding”. For the same binder, the binding [8] was “no binding”.
